From publication PMC10301333 (Pharmaceutics, 2023)
Strings that start with PEPTIDE1 are HELM notation: dots part the residues, brackets hold end groups and non-standard residues.

Assay: general procedure: Fmoc solid-phase peptide synthesis; H-Rink Amide ChemMatrix, 0.5 mmol/g; HBTU/DIEA
Details: oxidative folding step, analytical HPLC

Substance	final HPLC purity (several disulfide bridges) [%]	final HPLC purity [%]
YC3PYGNRLNYFC4PLGRTC5C6RRSY-amide	99.8	
PEPTIDE1{S.Y.V.G.D.C.G.S.N.G.G.S.C.V.S.S.Y.C.P.Y.G.N.R.L.N.Y.F.C.P.L.G.R.T.C.C.R.R.S.Y.[am]}$PEPTIDE1,PEPTIDE1,6:R3-34:R3|PEPTIDE1,PEPTIDE1,13:R3-28:R3|PEPTIDE1,PEPTIDE1,18:R3-35:R3$$$V2.0		98.7
